Source: PubChem BioAssay AID1259254 (NCATS, 2017)

Assay: 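Gene knock-downs that lead to re-replication, shown by excess G2 DNA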 (primary screen)
System: human HCT116 colorectal cancer cells
Reagents: single siRNA against human genes
Time to read-out: 3 days
Read-out: 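Imaged Hoechst DNA stain sorts each cell into a cycle phase by DNA amount; per plate, G2 fraction set to 0% for non-targeting and 100% for GMNN siRNA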
Scale: G2 robust z-score and G2 cells, % of GMNN control: higher = more G2 cells, more excess DNA replication
Rule for the call: 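Active siRNAs have a G2 robust z of 5 or more median absolute deviations over the median, which in these data means about 38% or higher of GMNN control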
The deposit covers about 59,000 reagents; below is a part drawn at random. Of all reagents, about 1,550 (2.6%) were called active. 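G2 share is only a proxy for re-replication; each gene was hit by three separate siRNAs, and active genes were retested.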 Further read-outs or replicates are left out here. No sequences are given here. The record does not give: the amount of reagent.

Target gene | PubChem SID | G2 robust z-score | G2 cells, % of GMNN control | call
NETO1 (neuropilin and tolloid like 1) | SID160750997 | -0.571 | -1.05 | inactive
NETO1 (neuropilin and tolloid like 1) | SID160750998 | -0.701 | -1.96 | inactive
NETO1 (neuropilin and tolloid like 1) | SID160750999 | 0.289 | 5 | inactive
CES2 (carboxylesterase 2) | SID160732101 | 0.953 | 9.67 | inactive
CES2 (carboxylesterase 2) | SID160766612 | 1.41 | 12.9 | inactive
CES2 (carboxylesterase 2) | SID160766701 | 1.18 | 11.3 | inactive
SH2D6 (SH2 domain containing 6) | SID160763455 | 1.18 | 11.3 | inactive
SH2D6 (SH2 domain containing 6) | SID160763456 | 4.23 | 32.8 | inactive
SH2D6 (SH2 domain containing 6) | SID160763457 | 0.613 | 7.28 | inactive
RGS9 (regulator of G protein signaling 9) | SID160720796 | -0.116 | 2.15 | inactive
RGS9 (regulator of G protein signaling 9) | SID160720797 | 5.25 | 39.9 | active
RGS9 (regulator of G protein signaling 9) | SID160720798 | 0.527 | 6.67 | inactive
GLT6D1 (glycosyltransferase 6 domain containing 1) | SID160765229 | -0.661 | -1.69 | inactive
GLT6D1 (glycosyltransferase 6 domain containing 1) | SID160765231 | 2.1 | 17.7 | inactive
GLT6D1 (glycosyltransferase 6 domain containing 1) | SID160765232 | -0.0691 | 2.48 | inactive
IGLV5-39 (immunoglobulin lambda variable 5-39) | SID160770618 | 0.434 | 6.02 | inactive
IGLV5-39 (immunoglobulin lambda variable 5-39) | SID160770619 | 1.63 | 14.4 | inactive
IGLV5-39 (immunoglobulin lambda variable 5-39) | SID160770620 | -0.0131 | 2.88 | inactive

No new results follow: entries from further up.
Target gene | PubChem SID | G2 robust z-score | G2 cells, % of GMNN control | call
RGS9 (regulator of G protein signaling 9) | SID160720796 | -0.116 | 2.15 | inactive
RGS9 (regulator of G protein signaling 9) | SID160720797 | 5.25 | 39.9 | active
RGS9 (regulator of G protein signaling 9) | SID160720798 | 0.527 | 6.67 | inactive
GLT6D1 (glycosyltransferase 6 domain containing 1) | SID160765229 | -0.661 | -1.69 | inactive
GLT6D1 (glycosyltransferase 6 domain containing 1) | SID160765231 | 2.1 | 17.7 | inactive
GLT6D1 (glycosyltransferase 6 domain containing 1) | SID160765232 | -0.0691 | 2.48 | inactive

Additional records:
Target gene | PubChem SID | G2 robust z-score | G2 cells, % of GMNN control | call
XCL2 (X-C motif chemokine ligand 2) | SID160717584 | -0.248 | 1.22 | inactive
XCL2 (X-C motif chemokine ligand 2) | SID160717585 | -0.122 | 2.11 | inactive
XCL2 (X-C motif chemokine ligand 2) | SID160734205 | -0.573 | -1.06 | inactive
CSNK1E (casein kinase 1 epsilon) | SID160730643 | -0.541 | -0.839 | inactive
CSNK1E (casein kinase 1 epsilon) | SID160770439 | -0.371 | 0.355 | inactive
CSNK1E (casein kinase 1 epsilon) | SID160772129 | -0.0486 | 2.63 | inactive
RIT1 (Ras like without CAAX 1) | SID160715914 | -0.181 | 1.7 | inactive
RIT1 (Ras like without CAAX 1) | SID160715915 | 1.27 | 11.9 | inactive
RIT1 (Ras like without CAAX 1) | SID160715916 | 0.617 | 7.31 | inactive
HCK (HCK proto-oncogene, Src family tyrosine kinase) | SID160774876 | -1.73 | -9.21 | inactive
HCK (HCK proto-oncogene, Src family tyrosine kinase) | SID160774878 | -1.08 | -4.66 | inactive
HCK (HCK proto-oncogene, Src family tyrosine kinase) | SID160774879 | 0.799 | 8.59 | inactive
HGH1 (HGH1 cochaperone) | SID160724412 | 2.79 | 22.6 | inactive
HGH1 (HGH1 cochaperone) | SID160724413 | 1.83 | 15.8 | inactive
HGH1 (HGH1 cochaperone) | SID160740381 | 2.12 | 17.9 | inactive
HTR3E (5-hydroxytryptamine receptor 3E) | SID160763544 | 4.31 | 33.3 | inactive
HTR3E (5-hydroxytryptamine receptor 3E) | SID160763545 | -0.285 | 0.964 | inactive
HTR3E (5-hydroxytryptamine receptor 3E) | SID160763546 | -1.43 | -7.11 | inactive
EMD (emerin) | SID160732658 | 1.58 | 14.1 | inactive
EMD (emerin) | SID160760050 | -0.879 | -3.21 | inactive
EMD (emerin) | SID160760061 | -0.912 | -3.45 | inactive
FGF14-AS2 (FGF14 antisense RNA 2) | SID160762940 | -0.735 | -2.2 | inactive
FGF14-AS2 (FGF14 antisense RNA 2) | SID160762941 | -0.483 | -0.431 | inactive
FGF14-AS2 (FGF14 antisense RNA 2) | SID160762942 | -0.0508 | 2.61 | inactive
